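Viability assay of Plasmodium falciparum sporozoites; the read-out is not stated. The concentration is filed as 10 mM, unlikely as a test dose, so the dose is not known. Direction is inferred from retests: higher values go with lower viability. Strong results were mostly tested again. About 34,000 compounds were tested under these conditions; 0.84% (about 280) showed 50% or more at least once.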

Values are the deposited “Percent Effect”, in %.
The record does not define 0% and 100%; most values in the screen are far below 50% and negative numbers occur (in some assays of this library far below -100).
This is an unselected part of the compounds tested.
Two or more numbers in one place are separate tests of the same structure; such repeats can differ widely.

Result for CN(C(=O)c1ccc(C#N)cc1)c1nnc(C2CCOC2)s1 (stereo not drawn) was -7.956%. CC(C)c1noc(CCC(=O)NC(C)c2ccccn2)n1 (stereo not drawn) gave 10.1%. For O=C(Cn1nc2c(cc1=O)CCCC2)N[C@@H](C(=O)O)c1ccccc1 the result was -5.921%. O=C(O)C(F)(F)F.c1ccc2c(c1)N(CC1CCOC1)CC21CCN(c2cnccn2)CC1 (stereo not drawn) read 6.888%.

Result for CC(C)NC(=O)[C@H]1CN(Cc2ccccc2)C[C@@H]1C(=O)c1ccccc1 was 13.09%. O=C(c1cc(F)cc2[nH]cnc12)N1CCCC1Cn1cccn1 (stereo not drawn) gave 6.389%. Result for Cc1cc(C)n(CC2CN(c3ccc(C#N)cn3)CCO2)n1 (stereo not drawn) was -3.902%. Result for CN(C)c1ncccc1CNS(=O)(=O)c1ccc(F)cc1F was 5.626%.

Result for COCCc1noc(CN(C)c2nc(C)cc(C)n2)n1 was 25.58% & 34.7%. Result for O=C(c1cncs1)N1CCC(Cc2cnc3[nH]ccc3c2)CC1 was 4.841%. For O=C1N(Cc2ccc(F)c(F)c2)CCCC12CCN(C1CCSCC1)C2 (stereo not drawn) the result was -4.292%. FC(F)(F)c1cc(N2CCc3ncnc(NC4CC4)c3CC2)ncn1 gave -5.303%.

With O=C(c1cccc2c1OCO2)N1CCCC1Cn1cccn1 (stereo not drawn) the screen gave -8.555%. For Cc1ccc(CN(CCN(C)C)Cc2ccnn2C2CCCCO2)o1.O=C(O)CC(O)(CC(=O)O)C(=O)O (stereo not drawn) the result was -4.714%. With O=C(NCC1CC1)c1cc2c(s1)CCN2C(=O)c1cccnc1 the screen gave 11.64%. With O=C1CN(c2ccc(CNC(=O)NCc3ccoc3)cc2)CCN1 the screen gave 13.47%.

COc1cnc(C2(O)CCN(C(=O)c3ccncc3)CC2)c(OC)n1 gave -14.34%. Result for CC(C)CS(=O)(=O)CC(=O)N1CCCC1c1noc(C2CC2)n1 (stereo not drawn) was -18.13% & -24.74%. With CCn1nc2c(cc1=O)CN(Cc1nc3ccccc3c(=O)[nH]1)CC2 the screen gave -13.81%. Cc1cc(N2CCN(C(=O)c3cnn(C(C)C)c3)CC2)cc(C)n1 gave -16.46%.

O=C(O)C(F)(F)F.[H][C@@]12CCN(c3cccnc3)C[C@]1([H])CN(C(=O)c1cccc(C)c1)C2 read -3.114%. For CCc1noc(C(C)N2CCNCC2)n1 (stereo not drawn) the result was -12.99%. For CCc1ccc(C2c3nc[nH]c3CCN2Cc2nccn2CC)nc1 (stereo not drawn) the result was 6.502%. CCOc1ccc(CN(C)C(=O)COc2ccc(C)nc2)cc1 read -24.46%.

Cc1cc(NCC2CCCO2)cc(=O)n1C (stereo not drawn) gave 7.177%. With [H][C@@]12CCCCN(C)[C@]1([H])[C@@H](c1ccccc1)CCN2C(=O)c1snnc1C the screen gave 4.253%. O=C(N1CCC(O)(C(F)(F)F)C1)C1(c2ccc(Cl)cc2)CC1 (stereo not drawn) read 4.343%. C[C@@H]1CN(CC(=O)NCc2ccccn2)C[C@]1(C)O gave -0.4325%.

Result for CC(C)(C)CC(=O)N1CCC(c2nn(CCN)c3nccnc23)C1 (stereo not drawn) was 6.543%. Result for Cc1nc(C)n(CC2CCCN2CC(=O)NCCc2ccccc2)n1 (stereo not drawn) was -4.841%. Cn1ccnc1CN1CCN(CC(O)c2ccco2)CC1 (stereo not drawn) gave -5.087%. COc1ccc(-n2cnnc2SCC(=O)N(C)C(C)C)cn1 gave -28.19%.

Result for COc1c(CNC(C)c2sc(C)nc2C)c(C(C)C)nn1C (stereo not drawn) was -0.7353%. For CC(=O)Nc1ccc(S(=O)(=O)N2CCOC(Cn3ccnc3)C2)cc1 (stereo not drawn) the result was 7.754%. For CCCSCC(=O)NS(=O)(=O)c1ccc2c(c1)OCCO2 the result was -10.39%. With Cc1nn(C)c(C)c1C1CCCN1CC(=O)Nc1cccnc1 (stereo not drawn) the screen gave 12.69%.

Cc1cc(C)nc(C2CCCN2C(=O)c2cnco2)n1 (stereo not drawn) read 2.685%. Result for O=C(O)C(F)(F)F.O=C(c1ccccn1)N1CCn2cnc(COCC3CC3)c2C1 was -0.7821%. With Cc1cnn(C2CN(Cc3noc(C)n3)C2)c1 the screen gave -5.882%. Result for COc1ccc(CNC2CCN(CCc3ccncc3)CC2)cc1O was -10.37%.

For Cc1ccc(N2CC3(CCN(Cc4nccn4C)C3)CC2=O)s1.O=C(O)C(F)(F)F (stereo not drawn) the result was 10.16%. With CNC(=O)c1cnn2c(C3CCCN3C)ccnc12 (stereo not drawn) the screen gave 6.681%. Result for CCN1CCOC(CNCc2ccccc2OCc2ccncc2)C1 (stereo not drawn) was -0.6256%. For Cc1nc(CN2CCCN(c3nccs3)CC2)no1 the result was 6.308%.

O=C(Nc1ncn(Cc2cccc(Br)c2)n1)C1CCC1 read -10.02% & -15.1%.

The first 5 entries again:

Compound	percent effect
CN(C(=O)c1ccc(C#N)cc1)c1nnc(C2CCOC2)s1 (stereo not drawn)	-7.956
CC(C)c1noc(CCC(=O)NC(C)c2ccccn2)n1 (stereo not drawn)	10.1
O=C(Cn1nc2c(cc1=O)CCCC2)N[C@@H](C(=O)O)c1ccccc1	-5.921
O=C(O)C(F)(F)F.c1ccc2c(c1)N(CC1CCOC1)CC21CCN(c2cnccn2)CC1 (stereo not drawn)	6.888
CC(C)NC(=O)[C@H]1CN(Cc2ccccc2)C[C@@H]1C(=O)c1ccccc1	13.09

Measurements from “University of Dundee, Small-Polar-MMV Screening Library” (2021), ChEMBL document CHEMBL3988442.